# Primary screen of a compound library

Chains of the proteins cited; added tags and fusions are not shown. Residues count along the entry.
UniProt A4I591, 1-473: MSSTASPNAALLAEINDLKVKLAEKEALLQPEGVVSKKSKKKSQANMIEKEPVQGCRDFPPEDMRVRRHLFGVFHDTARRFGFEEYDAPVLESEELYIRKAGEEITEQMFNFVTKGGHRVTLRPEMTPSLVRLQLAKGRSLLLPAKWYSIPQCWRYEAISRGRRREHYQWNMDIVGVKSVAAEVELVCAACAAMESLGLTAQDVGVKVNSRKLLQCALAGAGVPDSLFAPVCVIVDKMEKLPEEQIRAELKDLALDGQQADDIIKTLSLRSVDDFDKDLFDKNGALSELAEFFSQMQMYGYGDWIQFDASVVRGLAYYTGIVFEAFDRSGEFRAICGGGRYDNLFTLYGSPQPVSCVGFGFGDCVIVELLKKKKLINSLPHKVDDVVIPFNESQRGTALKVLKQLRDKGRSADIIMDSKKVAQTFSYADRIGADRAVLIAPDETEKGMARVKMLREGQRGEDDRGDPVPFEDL

A: 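Assay of Toxoplasma gondii numbers, read through their beta-galactosidase reporter with a colour substrate. Compounds at 10 µM. The record gives no direction; the compounds picked for IC50 retests had high values, so higher reads as fewer parasites. About 67,000 compounds were tested under these conditions; 0.38% (about 260) showed 50% or more at least once.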
B: 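Histidine-tRNA ligase, Leishmania infantum (UniProt A4I591). Enzyme assay of histidyl-tRNA synthetase; the read-out is not stated. Compounds at 30 µM. The record gives no direction; compounds that gave an IC50 in retests scored well above the rest, so higher reads as stronger inhibition. The assay is labelled LdHisRS but filed under L. infantum. About 69,000 compounds were tested under these conditions; 0.6% (about 410) showed 50% or more at least once.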

Results are given as percent effect.
How 0% and 100% were set is not recorded. Most values in the screen are low, and negative values occur.
Compounds were drawn at random from those tested, without regard to their results.
A dash means the value is not listed here; it may have been measured.

structure	A	B
Fc1cccnc1N1CCC2(CNCCC2(F)F)C1 (stereo not given)	-16.43%	4.274%
CCC(C)N(Cc1c[nH]c(C)n1)Cc1ccccc1Cl (stereo not given)	1.361%	5.333%
CCc1nc(CN2CCN(C(=O)c3cnccn3)CC2)cs1	10.66%	3.077%
[H][C@]12CC[C@]([H])(CN(C3CCOCC3)C1)N(Cc1cscn1)C2=O	9.825%	-
O=C(O)C(F)(F)F.[H][C@]12CN(Cc3cccc(C)c3)C(=O)[C@@]1([H])CN(C1CCOCC1)C2	11.85%	-
Cc1ccc(O)c(CN(CCCn2ccnc2)Cc2ccc(C)s2)c1	-	15.79%
CCc1noc(C(C)N(C)CC(=O)Nc2ccc(Br)cc2C)n1 (stereo not given)	9.393%	29.63%
C[C@H](NC(=O)c1cnc(-c2ccccc2)nc1O)C(N)=O	-20.16%	25%
O=C(NCCCNC(=O)c1cccc(O)c1)NCc1ccccc1F	3.268%	20%
Cc1cc(O)cc2c(=O)oc(CC(C)O)cc12 (stereo not given)	-2.305%	10.81%
CNC(=O)N1C[C@H]2C[C@H](C(=O)Nc3ccccc3)[C@@H](C1)O2	-	19.61%
O=S(=O)(Cc1c(F)cccc1Cl)Cc1nnnn1C1CC1	-17.65%	15.22%
Cc1cc(N(C)C)nc(C2(C)CCCNC2)n1 (stereo not given)	-	5.634%
Cc1ccc(-n2ccc3nc(N4CCCC4)ncc3c2=O)cc1C	-15.18%	-1.667%
Cc1n[nH]c(C)c1CCC(=O)N[C@@H]1CCC[C@@H](Oc2ccccc2)[C@@H]1O	-	9.859%
O=C(c1ccc(-n2cnnc2)cc1)N1CCCC(n2ccnc2)C1 (stereo not given)	-6.89%	0%
COc1ccccc1CC(=O)NCc1c(C)nc2cc(=O)[nH]n2c1C	-18.77%	39.2%
CCc1cc(C(=O)N2CC[C@@H](c3ccc4c(c3)OCO4)[C@H](O)C2)[nH]n1	4.658%	13.27%
CC(C)NC(=O)c1ccc2c(c1)C1(CCN(C(C)C)CC1)C(=O)N2	-	4.167%
COc1ccccc1N1CCN(CC[C@H](O)c2ccccc2)CC1=O	0.05764%	5.376%
[H][C@@]12CCN(c3ncccn3)C[C@]1(C(=O)NCCc1ccccn1)CCO2	-0.9246%	-
CC(C)(C)c1nnc(CN2CCN(S(C)(=O)=O)CC2)o1	-2.539%	17.31%
CCCc1cc(C(=O)N2CCC3(CCCN(CCOC)C3=O)C2)cs1 (stereo not given)	-7.944%	-1.754%
O=C(O)C(F)(F)F.[H][C@@]12CCCO[C@]1([H])[C@H](N1CCOCC1)CN(C(=O)c1ccccc1)C2	22.99%	-
O=C(c1cocn1)N1CCC[C@]2(C[C@@H](OCC3CC3)CO2)C1	-23.77%	20%
O=C(O)C(F)(F)F.c1ccc(CN2Cc3nccn3CC(Cn3cccn3)C2)nc1 (stereo not given)	-7.711%	-
CCc1ccc(C(=O)NCC2CCCN2CC)o1 (stereo not given)	6.655%	4.145%
O=C(O)C(F)(F)F.[H][C@]12CN(Cc3ccc(Cl)cc3)C[C@@]1([H])S(=O)(=O)CC[C@@H]2C(=O)NCC(C)C	-9.266%	-
COC(=O)c1cccc(S(=O)(=O)NCC(c2ccco2)N2CCCC2)c1 (stereo not given)	-4.204%	28%
COC(C)(C)Cn1ccnc1-c1cccc(C(C)N(C)C)c1 (stereo not given)	9.652%	14.29%
CNc1nc(C)c(C(=O)N2C[C@@H](C(=O)O)[C@H](C3CC3)C2)s1	-3.918%	-21.67%
CCc1nnc(CN(C)Cc2cccc(C(=O)Nc3cnn(C)c3)c2)o1	9.975%	8.219%
O=C(NCC1(O)COCCN(Cc2cccc(O)c2)C1)c1cscn1 (stereo not given)	-	4.225%
O=C1Nc2ccccc2/C1=C1\CCCN1	24.75%	9.89%
CC(C)(C)OC(=O)N1CCC[C@H](NCC2CCOCC2)C1	0.7572%	8.333%
CC(CN1CCC(c2ccccc2)CC1)n1cnc2ccccc21 (stereo not given)	-0.2796%	16.48%
Cc1ccccc1NC(=O)N1CCN(Cc2noc(C3CC3)n2)CC1	17.92%	2.609%
Cc1cc(C)c2cc(CNCC3CCCO3)c3nn(C)c(=O)n3c2c1 (stereo not given)	10.57%	13.89%
COc1ccc(CNC(=O)Nc2cccnc2N2CCCC2)cc1	-24.45%	14.91%
Cc1ccc(N2C[C@@H]3CN(Cc4csc(C)n4)CCO[C@@H]3C2)nn1	-	14%
O=S1(=O)CCN(CCCc2ccc(Cl)cc2)CC1	5.628%	6.25%
O=C(C1CC1)N1C[C@@H](F)[C@@H](OCc2nc3cc(F)ccc3[nH]2)C1	2.038%	22.97%
O=C(Nc1ccnn1C1CCCC1)c1ccc(NC2CC2)nc1	4.123%	14.29%
COc1ccc(CC(=O)N2CCN(Cc3ccco3)C[C@@H]2C)cc1OC	-2.824%	14.39%
COc1ccc(S(=O)(=O)NCCn2cnc(C)cc2=O)cc1C	7.761%	15.22%
NCCN1C(=O)CC[C@H]2CN(Cc3ccc4occc4c3)CC[C@H]21	-	12.9%
COc1ccc(-c2ccnc(N)c2)c(C)c1	-42.18%	10.34%
O=C(O)C(F)(F)F.[H][C@@]12COC[C@]1([H])[C@H](OCc1csc(C)n1)CN2Cc1cnn(C)c1	5.57%	-
Cn1cccc1C(=O)N1C[C@@H](OCc2cccnc2)[C@H]2OCCC[C@H]21	-	-5.455%
[H][C@@]12CCN(C[C@@H]1CC)[C@@H](CNC(=O)Nc1cccc(C#N)c1)C2	3.835%	-
Cc1nc(C)n(CC2CN(Cc3nc4ccccc4n3C)CCO2)n1 (stereo not given)	0.1806%	7.895%
Cc1nn(C)c2nc(-c3ccccn3)nc(NCCC3CCCN3C)c12 (stereo not given)	0.1189%	6.579%
Cc1noc(C)c1-c1nc(C2CCCNC2)ccc1CO.Cl.Cl (stereo not given)	-7.63%	-
Cc1nn(C)c(C)c1C1CCCN1C(=O)c1cc[nH]n1 (stereo not given)	0.7312%	5.405%
COc1cccc(C2CCCN2C(=O)NCCCn2cccn2)c1 (stereo not given)	7.674%	13.39%
[H][C@@]12CS(=O)(=O)C[C@]1([H])NCCN2c1ccnc(N(C)Cc2nccs2)n1	-1.888%	-
Cc1ccc(C(=O)N2CCCC2c2nnc3n2CCCCC3)s1 (stereo not given)	29.69%	19.47%
COCC(=O)N1CCN(S(=O)(=O)c2cccs2)[C@H]2CS(=O)(=O)C[C@H]21	-	10.2%
O=C(NCC1CC1)C1=NOC2(CCN(S(=O)(=O)Cc3ccccc3)C2)C1 (stereo not given)	1.724%	-1.818%
Fc1ccc(OCCCN2CCCC(Cn3cncn3)C2)cc1 (stereo not given)	-15.34%	19.3%
CCN(Cc1ccco1)C(=O)NCc1nnc2n1CCCCC2	-0.3793%	-6.849%
CN(C)C(=O)CN1CCC2(COCc3cnc(N4CCOCC4)nc32)C1 (stereo not given)	-	22%
[H][C@@]12C[C@H](O)CCN1C(=O)CN(CCSc1ccccn1)C2=O	0.08489%	-
CCn1cnnc1CCNS(=O)(=O)N1CCCC1c1ccco1 (stereo not given)	-13.85%	25.33%
Cc1ccnc(C2CCCN2C(=O)c2cnccn2)n1 (stereo not given)	0.9643%	4%
Cc1ccsc1C(=O)NC1CCS(=O)(=O)c2ccccc21 (stereo not given)	1.488%	14.58%
CN(C)C1(CNC(=O)c2c(O)cc(Cl)cc2Cl)CCOCC1	-	21.74%
Cc1cnc2n(c1=O)C(CC(=O)NCc1ccc(F)cc1)CS2 (stereo not given)	-10.78%	8.989%
Cc1ccc(N2CCC3(CCN(C(=O)c4ccoc4)CC3)CC2)nn1.O=C(O)C(F)(F)F	0.5175%	-
COc1ccc(C(=O)N(C2CC2)C2CC(=O)NC2=O)cc1 (stereo not given)	4.843%	6.494%
CNS(=O)(=O)c1ccc(CNC(=O)C2CN(C)CCO2)cc1 (stereo not given)	-0.3409%	9.91%

Some entries from above, unchanged:

- COc1ccccc1N1CCN(CC[C@H](O)c2ccccc2)CC1=O : A: 0.05764%; B: 5.376%
- Cc1ccc(-n2ccc3nc(N4CCCC4)ncc3c2=O)cc1C : A: -15.18%; B: -1.667%
- COc1ccc(CC(=O)N2CCN(Cc3ccco3)C[C@@H]2C)cc1OC : A: -2.824%; B: 14.39%
- Cc1ccccc1NC(=O)N1CCN(Cc2noc(C3CC3)n2)CC1 : A: 17.92%; B: 2.609%
- O=C(O)C(F)(F)F.[H][C@@]12CCCO[C@]1([H])[C@H](N1CCOCC1)CN(C(=O)c1ccccc1)C2 : A: 22.99%

The values are deposited in ChEMBL (CHEMBL3988442, “University of Dundee, Small-Polar-MMV Screening Library” (2021)).